The record followed here is publication PMC6459876.

By UniProt entry, the sequences of proteins in these tests, tags left out.
UniProt O75376: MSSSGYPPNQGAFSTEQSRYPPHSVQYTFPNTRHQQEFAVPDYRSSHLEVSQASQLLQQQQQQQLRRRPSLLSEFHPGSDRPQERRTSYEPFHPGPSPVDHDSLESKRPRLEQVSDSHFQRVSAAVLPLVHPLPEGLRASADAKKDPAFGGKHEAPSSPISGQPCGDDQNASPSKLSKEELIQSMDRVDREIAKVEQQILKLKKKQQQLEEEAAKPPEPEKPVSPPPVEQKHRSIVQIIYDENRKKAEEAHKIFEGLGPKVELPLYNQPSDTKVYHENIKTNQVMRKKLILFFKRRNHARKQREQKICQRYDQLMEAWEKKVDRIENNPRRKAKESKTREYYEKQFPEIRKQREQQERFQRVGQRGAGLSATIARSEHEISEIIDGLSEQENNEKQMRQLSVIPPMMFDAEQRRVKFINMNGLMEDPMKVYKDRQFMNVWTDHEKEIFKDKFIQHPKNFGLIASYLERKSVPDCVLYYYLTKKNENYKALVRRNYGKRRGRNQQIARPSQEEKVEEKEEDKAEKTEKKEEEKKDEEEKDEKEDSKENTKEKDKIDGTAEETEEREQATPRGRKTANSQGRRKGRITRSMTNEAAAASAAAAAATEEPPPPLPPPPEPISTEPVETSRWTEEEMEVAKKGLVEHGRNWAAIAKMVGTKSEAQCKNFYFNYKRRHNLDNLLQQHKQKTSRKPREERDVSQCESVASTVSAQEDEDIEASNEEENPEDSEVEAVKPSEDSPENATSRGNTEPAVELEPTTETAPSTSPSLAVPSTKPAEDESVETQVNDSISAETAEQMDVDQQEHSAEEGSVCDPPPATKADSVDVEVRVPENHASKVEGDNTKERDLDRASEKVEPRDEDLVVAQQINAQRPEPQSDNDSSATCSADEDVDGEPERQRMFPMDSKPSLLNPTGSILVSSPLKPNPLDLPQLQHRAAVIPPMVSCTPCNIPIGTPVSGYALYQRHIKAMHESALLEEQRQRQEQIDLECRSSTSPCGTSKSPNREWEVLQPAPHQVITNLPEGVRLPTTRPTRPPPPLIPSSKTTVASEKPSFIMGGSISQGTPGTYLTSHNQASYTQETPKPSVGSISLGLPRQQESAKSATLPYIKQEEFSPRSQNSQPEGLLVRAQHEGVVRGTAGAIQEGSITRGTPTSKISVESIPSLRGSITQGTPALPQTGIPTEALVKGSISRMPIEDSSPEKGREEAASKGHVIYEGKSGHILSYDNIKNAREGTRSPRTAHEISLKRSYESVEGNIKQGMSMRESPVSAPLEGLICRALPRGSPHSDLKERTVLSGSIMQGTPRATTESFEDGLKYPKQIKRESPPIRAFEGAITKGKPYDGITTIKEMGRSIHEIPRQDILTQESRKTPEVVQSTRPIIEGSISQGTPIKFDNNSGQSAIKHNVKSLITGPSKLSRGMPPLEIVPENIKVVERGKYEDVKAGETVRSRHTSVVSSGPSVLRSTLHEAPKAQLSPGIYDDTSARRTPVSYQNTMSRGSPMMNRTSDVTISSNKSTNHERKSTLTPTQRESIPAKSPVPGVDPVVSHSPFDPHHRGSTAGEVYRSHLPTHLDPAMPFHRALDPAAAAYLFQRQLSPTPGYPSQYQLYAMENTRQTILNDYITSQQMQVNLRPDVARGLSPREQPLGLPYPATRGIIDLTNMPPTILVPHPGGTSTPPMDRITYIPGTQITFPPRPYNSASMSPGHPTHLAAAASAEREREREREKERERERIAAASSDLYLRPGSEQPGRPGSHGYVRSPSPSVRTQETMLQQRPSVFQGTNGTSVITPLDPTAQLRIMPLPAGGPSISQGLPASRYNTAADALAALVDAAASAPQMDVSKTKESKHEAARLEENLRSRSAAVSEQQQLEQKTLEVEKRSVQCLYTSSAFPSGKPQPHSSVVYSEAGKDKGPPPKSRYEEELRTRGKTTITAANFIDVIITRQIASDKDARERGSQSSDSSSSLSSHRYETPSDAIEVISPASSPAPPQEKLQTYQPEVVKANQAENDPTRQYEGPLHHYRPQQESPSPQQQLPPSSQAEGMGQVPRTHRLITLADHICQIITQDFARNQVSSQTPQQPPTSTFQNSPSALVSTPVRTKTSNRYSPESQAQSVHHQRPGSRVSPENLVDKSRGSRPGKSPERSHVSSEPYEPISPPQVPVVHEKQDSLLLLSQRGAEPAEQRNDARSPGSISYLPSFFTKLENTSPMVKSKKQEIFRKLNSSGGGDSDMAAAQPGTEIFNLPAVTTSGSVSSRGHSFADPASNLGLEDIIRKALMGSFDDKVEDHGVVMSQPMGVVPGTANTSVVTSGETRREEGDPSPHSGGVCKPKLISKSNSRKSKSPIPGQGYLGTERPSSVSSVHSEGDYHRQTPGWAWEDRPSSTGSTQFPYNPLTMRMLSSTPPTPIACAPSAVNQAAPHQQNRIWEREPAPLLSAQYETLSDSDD
UniProt Q13227: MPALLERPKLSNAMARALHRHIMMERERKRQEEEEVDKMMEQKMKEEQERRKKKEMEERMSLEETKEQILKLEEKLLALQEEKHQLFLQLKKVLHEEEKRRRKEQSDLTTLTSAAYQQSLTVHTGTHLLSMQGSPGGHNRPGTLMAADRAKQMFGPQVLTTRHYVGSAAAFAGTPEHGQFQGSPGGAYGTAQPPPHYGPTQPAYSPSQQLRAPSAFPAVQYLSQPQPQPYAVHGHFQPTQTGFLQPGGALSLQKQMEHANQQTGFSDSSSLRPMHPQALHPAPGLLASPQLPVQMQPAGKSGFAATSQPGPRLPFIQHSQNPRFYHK

Like-named read-outs stand apart in the source and are kept apart here. No constants are given. Whether binding was seen depends on the method and setting. In cells and extracts the contact can be indirect. Some results given as binding are weak or reduced against the parent protein; the word gives no strength. For part of these data: Tags and fused reporters may be left off the sequences shown.

In assay [1] the target is Flag-NCOR (nuclear receptor corepressor) (UniProt O75376). Nature of the assay: co-IP; HEK293 co-transfected with HA-PPARα and Flag-NCOR, without or with WT or truncated HA-GPS2; lysed 48 h after transfection; lysate incubated with anti-Flag on protein A magnetic beads for 3 h at 4 °C; five washes with lysis buffer; blotted with anti-Flag or anti-HA.
For assay [2], the target named is T1, Flag-tagged PPARα (peroxisome proliferator-activated receptor α, NR1C1) (UniProt Q07869).
T1 sequence: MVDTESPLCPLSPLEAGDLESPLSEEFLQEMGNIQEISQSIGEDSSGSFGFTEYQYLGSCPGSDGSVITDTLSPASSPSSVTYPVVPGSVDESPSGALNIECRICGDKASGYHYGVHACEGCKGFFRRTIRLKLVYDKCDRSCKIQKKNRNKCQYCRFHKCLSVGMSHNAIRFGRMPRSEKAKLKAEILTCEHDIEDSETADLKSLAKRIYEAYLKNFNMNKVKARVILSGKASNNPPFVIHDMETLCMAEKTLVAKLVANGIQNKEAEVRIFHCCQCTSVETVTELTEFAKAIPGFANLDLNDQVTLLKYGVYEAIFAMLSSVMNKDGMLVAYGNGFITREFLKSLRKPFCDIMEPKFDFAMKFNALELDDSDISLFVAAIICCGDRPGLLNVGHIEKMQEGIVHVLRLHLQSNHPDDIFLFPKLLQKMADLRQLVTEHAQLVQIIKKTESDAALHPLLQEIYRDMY
Briefly: co-IP; HEK293 co-transfected with WT or truncated HA-GPS2 and Flag-PPARα; lysed 48 h after transfection; lysate incubated with anti-Flag on protein A magnetic beads for 3 h at 4 °C; five washes with lysis buffer; blotted with anti-Flag or anti-HA.

Assay [3] deals with Flag-NCOR (nuclear receptor corepressor) (UniProt O75376). Briefly: co-IP; HEK293 co-transfected with HA-PPARα and Flag-NCOR, without or with WT or truncated HA-GPS2; lysed 48 h after transfection; lysate incubated with anti-Flag on protein A magnetic beads for 3 h at 4 °C; five washes with lysis buffer; blotted with anti-Flag or anti-HA. This is another data set of the same source.

For the molecule “HA-GPS2 (G protein pathway suppressor 2), WT, full-length (from UniProt Q13227 1-327)”, the binding entry in assay [1] and in assay [2] was “binds” throughout.

B1: HA-PPARα (peroxisome proliferator-activated receptor α, NR1C1) (protein, UniProt Q07869 1-468)
chain: MVDTESPLCPLSPLEAGDLESPLSEEFLQEMGNIQEISQSIGEDSSGSFGFTEYQYLGSCPGSDGSVITDTLSPASSPSSVTYPVVPGSVDESPSGALNIECRICGDKASGYHYGVHACEGCKGFFRRTIRLKLVYDKCDRSCKIQKKNRNKCQYCRFHKCLSVGMSHNAIRFGRMPRSEKAKLKAEILTCEHDIEDSETADLKSLAKRIYEAYLKNFNMNKVKARVILSGKASNNPPFVIHDMETLCMAEKTLVAKLVANGIQNKEAEVRIFHCCQCTSVETVTELTEFAKAIPGFANLDLNDQVTLLKYGVYEAIFAMLSSVMNKDGMLVAYGNGFITREFLKSLRKPFCDIMEPKFDFAMKFNALELDDSDISLFVAAIICCGDRPGLLNVGHIEKMQEGIVHVLRLHLQSNHPDDIFLFPKLLQKMADLRQLVTEHAQLVQIIKKTESDAALHPLLQEIYRDMY
On to B1, for which the binding entry in assay [3] is “binds”.
